± gives the standard deviation of the averaged measurements. Values are relative to the signal before dosing, not to a vehicle control; the signal also falls without drug.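 Fibroblast labels denote human fibroblasts, mainly primary ones from uterus (C12385, HUF), lung (H6013), bone (Hs27A), adrenal (HADF) and skin (WS1), plus mammary HMF and breast cancer-associated Hs343T. Cancer cells are basal-like or mesenchymal-like triple-negative breast cancer lines. A hit is a response shift exceeding 3x replicate standard deviation. The tissue of the other fibroblasts is not given here.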
Test system: MDAMB436
Test: relative JC-1 red fluorescence (viability) vs pre-drug, coculture with fibroblast (fraction); higher = more viable cancer cells
Settings: 10 µM
Method: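 JC-1 labelled TNBC cells cocultured 1:1 (1,500 cells each) with CellTrace Violet stained primary or stromal fibroblasts in 384-well plates in FluoroBrite medium, treated with one of 42 anticancer drugs at 0.1, 1, 10 or 100 uM. JC-1 red fluorescence (mitochondrial integrity in cancer cells only) was read by plate reader every 8 h for 72 h. Values are normalised to each well's pre-drug value. The stock of one drug was tenfold lower, so its dose labels may be too high.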

CO[C@H]1C[C@@H]2CC[C@@H](C)[C@@](O)(O2)C(=O)C(=O)N2CCCC[C@H]2C(=O)O[C@H]([C@H](C)C[C@@H]2CC[C@@H](OCCO)[C@H](OC)C2)CC(=O)[C@H](C)/C=C(\C)[C@@H](O)[C@@H](OC)C(=O)[C@H](C)C[C@H](C)/C=C/C=C/C=C/1C [Everolimus]
relative JC-1 red fluorescence
Settings	8 h	16 h	24 h	32 h	40 h	48 h	56 h	64 h	72 h
coculture fibroblast: C12385	0.851 ± 0.011	0.8947 ± 0.0079	0.9378 ± 0.003	0.8837 ± 0.0059	0.852 ± 0.0088	0.8312 ± 0.0011	0.8065 ± 0.0068	0.785 ± 0.015	0.775 ± 0.013
coculture fibroblast: H6013	0.869 ± 0.016	0.9345 ± 0.0026	0.977 ± 0.021	0.8 ± 0.15	0.952 ± 0.051	0.861 ± 0.054	0.869 ± 0.17	0.91 ± 0.072	0.829 ± 0.13
coculture fibroblast: H6019	0.8554 ± 0.0022	0.86 ± 0.011	0.895 ± 0.012	0.857 ± 0.017	0.857 ± 0.017	0.842 ± 0.025	0.818 ± 0.029	0.79 ± 0.021	0.771 ± 0.029
coculture fibroblast: H6076	0.789 ± 0.011	0.8357 ± 0.0046	0.91 ± 0.026	0.909 ± 0.053	0.922 ± 0.061	0.911 ± 0.072	0.934 ± 0.083	0.922 ± 0.088	0.904 ± 0.11
coculture fibroblast: H6231	0.826 ± 0.023	0.879 ± 0.025	0.855 ± 0.18	0.939 ± 0.022	0.923 ± 0.025	0.885 ± 0.024	0.873 ± 0.028	0.837 ± 0.027	0.827 ± 0.023
coculture fibroblast: HADF	0.878 ± 0.024	0.932 ± 0.039	0.952 ± 0.049	0.825 ± 0.11	0.817 ± 0.13	0.915 ± 0.019	0.916 ± 0.081	0.912 ± 0.095	0.858 ± 0.087
coculture fibroblast: HCFa	0.906 ± 0.075	0.9119 ± 0.0016	0.832 ± 0.15	0.841 ± 0.14	0.955 ± 0.031	0.963 ± 0.022	0.881 ± 0.015	0.854 ± 0.025	0.784 ± 0.014
coculture fibroblast: HCPF	0.837 ± 0.054	0.896 ± 0.056	0.942 ± 0.034	0.895 ± 0.02	0.893 ± 0.018	0.852 ± 0.015	0.8245 ± 0.0021	0.804 ± 0.012	0.785 ± 0.011
coculture fibroblast: HHSteC	0.847 ± 0.07	0.853 ± 0.15	0.926 ± 0.1	0.848 ± 0.21	0.903 ± 0.13	0.803 ± 0.098	0.833 ± 0.15	0.818 ± 0.15	0.8635 ± 0.0018
coculture fibroblast: HMF	0.935 ± 0.065	0.856 ± 0.11	0.983 ± 0.018	0.957 ± 0.015	0.932 ± 0.02	0.875 ± 0.028	0.853 ± 0.047	0.817 ± 0.041	0.79 ± 0.043
coculture fibroblast: HPFa	0.949 ± 0.027	0.897 ± 0.14	0.88 ± 0.041	0.799 ± 0.063	0.784 ± 0.03	0.804 ± 0.019	0.883 ± 0.077	0.841 ± 0.11	0.868 ± 0.026
coculture fibroblast: HUF	0.8988 ± 0.0032	0.919 ± 0.014	0.94 ± 0.025	0.902 ± 0.029	0.853 ± 0.031	0.814 ± 0.021	0.782 ± 0.029	0.765 ± 0.027	0.751 ± 0.023
coculture fibroblast: Hs5	0.885 ± 0.021	0.926 ± 0.011	0.963 ± 0.012	0.912 ± 0.014	0.892 ± 0.031	0.821 ± 0.029	0.816 ± 0.039	0.764 ± 0.033	0.738 ± 0.045
coculture fibroblast: Hs27A	0.812 ± 0.17	0.869 ± 0.18	0.84 ± 0.11	0.828 ± 0.083	0.864 ± 0.032	0.802 ± 0.072	0.861 ± 0.19	0.949 ± 0.054	0.881 ± 0.045
coculture fibroblast: Hs343T	0.8435 ± 0.0029	0.8688 ± 0.0032	0.918 ± 0.031	0.895 ± 0.036	0.885 ± 0.057	0.84 ± 0.062	0.835 ± 0.074	0.821 ± 0.077	0.808 ± 0.073
coculture fibroblast: WS1	0.845 ± 0.01	0.864 ± 0.0088	0.901 ± 0.018	0.847 ± 0.032	0.826 ± 0.03	0.803 ± 0.036	0.779 ± 0.049	0.751 ± 0.057	0.735 ± 0.068

Reference: the supplement of paper PMC6078165
